Experimental data: PubChem BioAssay AID1259329 (Drosophila RNAi Screening Center, 2017)

Screen: 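Vehicle-only control for knock-down screens on manganese or zinc toxicity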
Cell system: Drosophila S2R+ cells
Knock-down reagent: long dsRNA against Drosophila genes
Time to read-out: 5 days (4 days knock-down, then 1 day after water)
Treatment: water added as vehicle control, no metal, one day before read-out
Measured: 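After 4 days of knock-down, water was added with no metal, and total ATP was read by luciferase light a day later on two plate copies, as mean z-score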
Direction: mean ATP z-score: higher = more total ATP, likely more viable cells
Call rule: 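a reagent counts as active if its z-score is greater than 1.5 or less than -1.5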
The deposit covers 418 reagents; this is a part drawn at random. 20 of all reagents (4.8%) count as active. 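All active calls have high ATP; no reagent fell below -1.5.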 Reagents against one gene are numbered here. Not stated in the record: the amount of reagent, the dose of the treatment.

Knock-down of CG17134 came out at: mean ATP z-score 0.0581; inactive.
Depletion of Ppt2 #1 came out at: mean ATP z-score 0.58; inactive.
Silencing of Ppt2 #2 gave: mean ATP z-score -0.363; inactive.
With knock-down of Ppt2 #3, the screen gave mean ATP z-score -0.625; inactive.
Silencing of Npc2a gave: mean ATP z-score 0.135; inactive.
Depletion of Tsp42Ea #1 resulted in: mean ATP z-score 0.623; inactive.
Silencing of Tsp42Ea #2 gave: mean ATP z-score -0.298; inactive.
For Vps4 #1, the values are mean ATP z-score 1.13; inactive.
Vps4 #2 gave mean ATP z-score 0.334; inactive.
With knock-down of Vps4 #3, the record shows mean ATP z-score -0.889; inactive.
gb #1 showed mean ATP z-score 0.144; inactive.
Knock-down of gb #2 resulted in: mean ATP z-score -0.418; inactive.
For Pex3 #1, the values are mean ATP z-score 1.14; inactive.
For Pex3 #2, the entry reads mean ATP z-score 1.56; active.
Knock-down of Idh #1 resulted in: mean ATP z-score 0.0514; inactive.
Silencing of Idh #2 came out at: mean ATP z-score -0.715; inactive.
With knock-down of Idh #3, the record shows mean ATP z-score 1.02; inactive.
Depletion of Vha55 #1 gave: mean ATP z-score 0.635; inactive.
After knock-down of Vha55 #2, the record shows mean ATP z-score 0.284; inactive.
For Vha55 #3 the deposit lists mean ATP z-score 0.672; inactive.
After knock-down of CG5731 #1, the record shows mean ATP z-score 0.185; inactive.
Knock-down of CG5731 #2 came out at: mean ATP z-score -0.0728; inactive.
Depletion of CG5731 #3 gave: mean ATP z-score 0.132; inactive.
For Cln7 #1, the entry reads mean ATP z-score 0.474; inactive.
Knock-down of Cln7 #2 gave: mean ATP z-score 0.655; inactive.
Mfe2 gave mean ATP z-score 1.36; inactive.
With knock-down of g #1 the results were mean ATP z-score -0.498; inactive.
Silencing of g #2 gave: mean ATP z-score 0.0527; inactive.
fdl #1 scored mean ATP z-score 0.181; inactive.
After knock-down of fdl #2, the record shows mean ATP z-score 2.05; active.
Npc2h scored mean ATP z-score -0.596; inactive.
Silencing of Vha16-5 #1 came out at: mean ATP z-score -0.211; inactive.
After knock-down of Vha16-5 #2 the results were mean ATP z-score -0.921; inactive.
For Vha16-5 #3 the deposit lists mean ATP z-score -1.27; inactive.

Laid out differently: results already given.
Vha55 #1
- mean ATP z-score: 0.635
- Outcome: inactive

Vha55 #2
- mean ATP z-score: 0.284
- Outcome: inactive

Vha55 #3
- mean ATP z-score: 0.672
- Outcome: inactive

CG5731 #1
- mean ATP z-score: 0.185
- Outcome: inactive

CG5731 #2
- mean ATP z-score: -0.0728
- Outcome: inactive
